Measurements from the supplement of paper PMC6411743.
± gives the standard deviation of the averaged measurements. Some of the results follow.

Sequences of proteins named here, by UniProt entry; tags and fusion partners are left off. A change or cut given only in a name is not applied to a line headed by its entry.
UniProt Q9GZT9: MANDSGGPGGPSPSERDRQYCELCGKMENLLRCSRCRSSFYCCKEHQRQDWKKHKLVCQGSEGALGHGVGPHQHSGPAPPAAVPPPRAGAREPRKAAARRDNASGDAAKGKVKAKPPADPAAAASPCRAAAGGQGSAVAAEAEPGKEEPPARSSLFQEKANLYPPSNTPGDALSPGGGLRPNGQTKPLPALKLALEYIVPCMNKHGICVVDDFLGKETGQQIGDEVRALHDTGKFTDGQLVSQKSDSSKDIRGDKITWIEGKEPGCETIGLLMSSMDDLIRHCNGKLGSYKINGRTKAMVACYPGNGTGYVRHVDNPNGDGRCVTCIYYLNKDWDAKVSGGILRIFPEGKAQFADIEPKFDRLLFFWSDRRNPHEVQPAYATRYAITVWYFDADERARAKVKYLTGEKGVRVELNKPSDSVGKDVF
UniProt Q9HD20: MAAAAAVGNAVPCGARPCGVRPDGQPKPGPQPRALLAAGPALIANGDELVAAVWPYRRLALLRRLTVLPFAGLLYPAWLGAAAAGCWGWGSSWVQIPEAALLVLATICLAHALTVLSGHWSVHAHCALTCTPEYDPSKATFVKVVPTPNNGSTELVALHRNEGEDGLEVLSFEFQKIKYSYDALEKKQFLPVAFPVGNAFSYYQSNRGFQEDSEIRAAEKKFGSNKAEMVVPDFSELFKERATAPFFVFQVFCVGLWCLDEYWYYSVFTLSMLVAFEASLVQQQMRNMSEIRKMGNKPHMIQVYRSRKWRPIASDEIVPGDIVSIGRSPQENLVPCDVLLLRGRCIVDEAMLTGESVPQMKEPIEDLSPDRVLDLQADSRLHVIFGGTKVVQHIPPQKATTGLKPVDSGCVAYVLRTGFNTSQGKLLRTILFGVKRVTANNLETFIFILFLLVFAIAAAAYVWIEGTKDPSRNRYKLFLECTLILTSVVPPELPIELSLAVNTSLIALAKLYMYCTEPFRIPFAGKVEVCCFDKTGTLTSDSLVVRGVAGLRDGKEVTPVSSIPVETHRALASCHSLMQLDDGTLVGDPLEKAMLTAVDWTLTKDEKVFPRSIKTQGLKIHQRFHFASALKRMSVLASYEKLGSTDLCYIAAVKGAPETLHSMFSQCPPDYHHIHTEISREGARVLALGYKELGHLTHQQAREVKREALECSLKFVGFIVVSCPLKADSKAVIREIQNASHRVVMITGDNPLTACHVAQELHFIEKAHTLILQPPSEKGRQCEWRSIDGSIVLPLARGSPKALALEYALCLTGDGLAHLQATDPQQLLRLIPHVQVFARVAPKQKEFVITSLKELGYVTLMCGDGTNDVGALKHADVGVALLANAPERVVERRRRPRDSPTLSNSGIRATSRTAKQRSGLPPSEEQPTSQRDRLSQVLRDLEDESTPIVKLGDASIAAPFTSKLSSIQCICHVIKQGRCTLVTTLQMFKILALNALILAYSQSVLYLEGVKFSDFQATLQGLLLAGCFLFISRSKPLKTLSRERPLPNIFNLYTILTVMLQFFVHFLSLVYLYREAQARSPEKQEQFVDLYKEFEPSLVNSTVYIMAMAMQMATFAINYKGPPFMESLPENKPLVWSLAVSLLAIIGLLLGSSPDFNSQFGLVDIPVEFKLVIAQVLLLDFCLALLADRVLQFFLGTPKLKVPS
UniProt Q9HAU5: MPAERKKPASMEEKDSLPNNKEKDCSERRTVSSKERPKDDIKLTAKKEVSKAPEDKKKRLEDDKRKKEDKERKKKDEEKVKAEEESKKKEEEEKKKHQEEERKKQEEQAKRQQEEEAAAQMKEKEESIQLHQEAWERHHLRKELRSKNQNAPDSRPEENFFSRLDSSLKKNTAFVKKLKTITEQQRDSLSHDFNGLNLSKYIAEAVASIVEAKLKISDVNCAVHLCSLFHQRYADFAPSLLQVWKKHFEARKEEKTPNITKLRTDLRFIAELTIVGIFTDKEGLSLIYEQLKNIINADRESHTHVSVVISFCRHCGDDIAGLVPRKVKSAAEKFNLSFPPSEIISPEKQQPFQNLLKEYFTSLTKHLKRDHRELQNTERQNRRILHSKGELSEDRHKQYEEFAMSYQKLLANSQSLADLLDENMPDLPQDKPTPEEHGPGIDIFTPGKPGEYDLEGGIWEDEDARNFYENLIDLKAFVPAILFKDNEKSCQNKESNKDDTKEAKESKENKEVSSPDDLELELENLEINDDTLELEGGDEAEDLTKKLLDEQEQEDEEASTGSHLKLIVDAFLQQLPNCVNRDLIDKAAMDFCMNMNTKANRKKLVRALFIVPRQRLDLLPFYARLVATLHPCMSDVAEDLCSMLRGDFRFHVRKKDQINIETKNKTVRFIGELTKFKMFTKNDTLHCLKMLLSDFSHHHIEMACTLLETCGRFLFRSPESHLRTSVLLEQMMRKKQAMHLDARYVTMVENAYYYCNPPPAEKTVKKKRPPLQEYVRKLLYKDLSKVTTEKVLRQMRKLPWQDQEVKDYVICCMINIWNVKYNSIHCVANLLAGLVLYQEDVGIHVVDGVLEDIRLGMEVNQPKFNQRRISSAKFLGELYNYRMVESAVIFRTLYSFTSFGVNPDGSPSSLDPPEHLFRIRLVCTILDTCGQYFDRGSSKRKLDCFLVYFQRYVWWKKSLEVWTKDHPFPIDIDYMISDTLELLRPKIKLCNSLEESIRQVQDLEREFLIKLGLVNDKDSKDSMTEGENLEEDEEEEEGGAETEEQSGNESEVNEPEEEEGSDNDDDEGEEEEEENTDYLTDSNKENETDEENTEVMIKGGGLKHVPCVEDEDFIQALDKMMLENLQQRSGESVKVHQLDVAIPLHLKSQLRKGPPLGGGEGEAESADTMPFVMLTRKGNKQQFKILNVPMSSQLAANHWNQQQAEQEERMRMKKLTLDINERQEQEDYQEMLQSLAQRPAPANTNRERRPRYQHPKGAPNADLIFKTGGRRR
UniProt Q9NNW7, whole entry: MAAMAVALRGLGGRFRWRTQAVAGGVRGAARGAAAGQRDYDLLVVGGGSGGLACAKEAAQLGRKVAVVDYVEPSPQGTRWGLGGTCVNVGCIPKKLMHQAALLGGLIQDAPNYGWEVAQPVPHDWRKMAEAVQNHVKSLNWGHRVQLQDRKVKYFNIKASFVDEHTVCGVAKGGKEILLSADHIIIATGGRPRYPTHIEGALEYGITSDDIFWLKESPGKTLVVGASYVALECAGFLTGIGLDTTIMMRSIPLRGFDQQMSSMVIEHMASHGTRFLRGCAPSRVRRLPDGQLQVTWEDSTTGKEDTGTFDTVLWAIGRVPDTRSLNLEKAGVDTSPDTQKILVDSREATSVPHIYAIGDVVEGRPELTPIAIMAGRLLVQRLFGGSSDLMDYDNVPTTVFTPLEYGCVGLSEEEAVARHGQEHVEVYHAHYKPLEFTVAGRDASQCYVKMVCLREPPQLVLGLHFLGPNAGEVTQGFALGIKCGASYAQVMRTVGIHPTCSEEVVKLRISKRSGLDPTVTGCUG
UniProt Q9H2J4: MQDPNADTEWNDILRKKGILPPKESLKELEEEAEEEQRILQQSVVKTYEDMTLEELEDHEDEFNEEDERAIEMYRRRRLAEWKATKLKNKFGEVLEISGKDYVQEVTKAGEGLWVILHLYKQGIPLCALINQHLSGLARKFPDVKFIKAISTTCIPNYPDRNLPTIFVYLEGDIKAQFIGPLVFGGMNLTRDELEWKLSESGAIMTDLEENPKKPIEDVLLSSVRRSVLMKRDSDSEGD
UniProt Q9H7Z7: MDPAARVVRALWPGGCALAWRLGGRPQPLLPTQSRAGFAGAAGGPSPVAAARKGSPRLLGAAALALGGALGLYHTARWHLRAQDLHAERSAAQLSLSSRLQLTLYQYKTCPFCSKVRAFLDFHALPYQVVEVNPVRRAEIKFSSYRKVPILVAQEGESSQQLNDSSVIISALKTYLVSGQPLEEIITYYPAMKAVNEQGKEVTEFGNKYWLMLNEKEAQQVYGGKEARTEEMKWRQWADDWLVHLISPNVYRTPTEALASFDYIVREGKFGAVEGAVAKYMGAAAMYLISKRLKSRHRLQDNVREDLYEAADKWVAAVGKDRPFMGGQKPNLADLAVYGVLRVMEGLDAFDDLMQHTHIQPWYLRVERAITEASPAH
UniProt Q9H871: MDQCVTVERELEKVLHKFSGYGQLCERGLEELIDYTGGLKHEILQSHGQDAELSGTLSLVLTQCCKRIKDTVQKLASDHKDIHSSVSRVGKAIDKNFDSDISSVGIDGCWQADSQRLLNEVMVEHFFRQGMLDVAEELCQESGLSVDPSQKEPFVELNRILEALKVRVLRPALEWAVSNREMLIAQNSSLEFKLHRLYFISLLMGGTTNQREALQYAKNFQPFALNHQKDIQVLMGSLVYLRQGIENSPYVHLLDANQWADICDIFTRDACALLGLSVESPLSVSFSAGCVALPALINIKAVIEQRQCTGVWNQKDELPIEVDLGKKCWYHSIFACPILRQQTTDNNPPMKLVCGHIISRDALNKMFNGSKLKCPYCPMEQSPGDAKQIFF
UniProt Q9NQE9: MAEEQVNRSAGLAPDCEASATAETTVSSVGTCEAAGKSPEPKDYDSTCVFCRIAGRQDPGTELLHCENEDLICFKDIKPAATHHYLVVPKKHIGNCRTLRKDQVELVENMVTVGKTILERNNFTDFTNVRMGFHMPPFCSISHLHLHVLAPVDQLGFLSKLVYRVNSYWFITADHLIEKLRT
UniProt Q9NR45: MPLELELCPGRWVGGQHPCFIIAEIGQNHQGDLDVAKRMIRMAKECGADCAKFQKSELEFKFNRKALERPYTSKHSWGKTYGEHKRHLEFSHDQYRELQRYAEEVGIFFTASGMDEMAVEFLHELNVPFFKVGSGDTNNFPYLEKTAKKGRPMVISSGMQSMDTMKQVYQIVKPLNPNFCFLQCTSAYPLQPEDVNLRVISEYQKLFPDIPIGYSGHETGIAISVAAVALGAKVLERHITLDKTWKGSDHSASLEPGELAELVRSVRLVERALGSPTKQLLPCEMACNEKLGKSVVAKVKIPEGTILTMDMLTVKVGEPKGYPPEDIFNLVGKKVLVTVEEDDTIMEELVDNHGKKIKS
UniProt Q9H3G5: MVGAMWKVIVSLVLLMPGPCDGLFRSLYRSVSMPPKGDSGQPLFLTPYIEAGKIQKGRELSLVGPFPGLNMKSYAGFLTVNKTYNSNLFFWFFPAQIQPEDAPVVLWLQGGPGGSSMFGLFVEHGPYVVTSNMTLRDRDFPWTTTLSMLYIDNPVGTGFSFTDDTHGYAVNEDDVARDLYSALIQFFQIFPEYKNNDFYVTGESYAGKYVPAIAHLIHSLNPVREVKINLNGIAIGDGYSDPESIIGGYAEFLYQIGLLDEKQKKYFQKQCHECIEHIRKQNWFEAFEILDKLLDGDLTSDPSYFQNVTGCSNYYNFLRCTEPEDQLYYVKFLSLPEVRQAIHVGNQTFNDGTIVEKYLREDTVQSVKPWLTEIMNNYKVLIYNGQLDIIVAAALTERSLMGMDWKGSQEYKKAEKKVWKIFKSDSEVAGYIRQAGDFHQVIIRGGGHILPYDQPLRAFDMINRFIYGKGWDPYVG
UniProt Q9HAT8: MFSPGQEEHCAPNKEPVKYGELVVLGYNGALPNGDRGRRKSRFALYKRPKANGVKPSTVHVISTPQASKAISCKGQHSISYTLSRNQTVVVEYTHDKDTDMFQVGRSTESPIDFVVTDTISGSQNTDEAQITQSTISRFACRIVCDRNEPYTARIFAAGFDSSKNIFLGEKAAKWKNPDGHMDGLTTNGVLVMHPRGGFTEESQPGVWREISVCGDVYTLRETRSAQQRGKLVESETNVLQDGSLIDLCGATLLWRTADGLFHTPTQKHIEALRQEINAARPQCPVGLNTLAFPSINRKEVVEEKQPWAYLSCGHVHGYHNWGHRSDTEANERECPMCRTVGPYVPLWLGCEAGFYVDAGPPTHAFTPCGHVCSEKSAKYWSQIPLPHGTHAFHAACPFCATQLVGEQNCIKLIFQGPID
UniProt Q9H078: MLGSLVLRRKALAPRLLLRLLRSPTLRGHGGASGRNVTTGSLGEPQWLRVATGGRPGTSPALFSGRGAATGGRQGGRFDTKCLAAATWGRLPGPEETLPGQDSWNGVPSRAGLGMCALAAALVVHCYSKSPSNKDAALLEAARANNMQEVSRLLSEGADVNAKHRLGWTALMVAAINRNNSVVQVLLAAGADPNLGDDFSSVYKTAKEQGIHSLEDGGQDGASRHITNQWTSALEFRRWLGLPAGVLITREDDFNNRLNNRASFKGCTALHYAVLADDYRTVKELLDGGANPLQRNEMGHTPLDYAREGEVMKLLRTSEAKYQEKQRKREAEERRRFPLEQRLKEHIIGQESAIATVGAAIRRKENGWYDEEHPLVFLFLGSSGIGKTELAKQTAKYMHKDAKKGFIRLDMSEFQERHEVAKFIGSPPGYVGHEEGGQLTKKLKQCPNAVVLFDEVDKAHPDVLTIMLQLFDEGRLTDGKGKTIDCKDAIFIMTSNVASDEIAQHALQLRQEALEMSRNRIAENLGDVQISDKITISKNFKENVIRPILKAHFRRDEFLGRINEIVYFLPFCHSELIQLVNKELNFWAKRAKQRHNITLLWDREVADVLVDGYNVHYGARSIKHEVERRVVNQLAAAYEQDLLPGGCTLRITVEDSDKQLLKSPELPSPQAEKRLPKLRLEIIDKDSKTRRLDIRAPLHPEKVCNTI

The targets below were run with Nc1nc2c(ncn2[C@@H]2O[C@H](COP(=O)(O)OP(=O)(O)OP(=O)(O)O)[C@@H](O)[C@H]2O)c(=O)[nH]1 [guanosine triphosphate] (assay: NP40-soluble protein abundance relative to vehicle (solubility fold change) (ratio); higher = more soluble protein in presence of GTP). Conditions: concentration: 0.1mM.
Outline: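 In three independent experiments, Jurkat crude lysate made by Dounce homogenisation was treated for 10 min at room temperature and then 3 min at 37 °C with eight concentrations ranging from 0.1 to 10 mM. It was then solubilised with 0.8% NP40 plus benzonase for 60 min at 4 °C and ultracentrifuged. The supernatant was TMT-labelled for LC-MS/MS, and each value is the fold change against the detergent-processed vehicle for the same replicate, using vsn-normalised intensities.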

Target	NP40-soluble protein abundance
EGLN1 (UniProt Q9GZT9)	0.993 ± 0.055
UniProt Q9HD20 and related entries	1.07 ± 0.015
UniProt Q9H330 and related entries	0.908 ± 0.04
UPF2 (UniProt Q9HAU5)	0.959 ± 0.048
KLC2 (UniProt Q9H0B6)	0.998 ± 0.011
UniProt Q9HCE5	0.962 ± 0.02
UniProt Q9NNW7 and related entries	0.979 ± 0.087
PDCL3 (UniProt Q9H2J4)	1.02 ± 0.051
UniProt Q9H7Z7 and related entries	0.9842 ± 0.0065
PDF (UniProt Q9HBH1)	1.03 ± 0.061
UniProt Q9HDC9-2|Q9HDC9	0.959 ± 0.018
UniProt Q9H2D6-5|Q9H2D6 and related entries	1.01 ± 0.12
RMI1 (UniProt Q9H9A7)	1.06 ± 0.036
UniProt Q9GZT3 and related entries	0.885 ± 0.11
UniProt Q9H871	1.12 ± 0.07
UniProt Q9H3Z4 and related entries	0.93 ± 0.049
HINT3 (UniProt Q9NQE9)	1.04 ± 0.023
NANS (UniProt Q9NR45)	0.988 ± 0.042
CPVL (UniProt Q9H3G5)	0.938 ± 0.021

Target	NP40-soluble protein abundance
PELI2 (UniProt Q9HAT8)	0.939 ± 0.06
UniProt Q9H6Z4 and related entries	0.956 ± 0.081
GOLPH3 (UniProt Q9H4A6)	0.992 ± 0.017
UniProt Q9GZU8	0.899 ± 0.012
UniProt Q9HBE1 and related entries	1.08 ± 0.088
UniProt Q9H0X9 and related entries	1.24 ± 0.014
UniProt Q9H078 and related entries	1.02 ± 0.096
CWC22 (UniProt Q9HCG8)	0.965 ± 0.065
UniProt Q9H1E5	0.993 ± 0.1
ETNK1 (UniProt Q9HBU6)	1.07 ± 0.077
UniProt Q9HC36	0.949 ± 0.043
ATG5 (UniProt Q9H1Y0)	1.02 ± 0.018
UTP3 (UniProt Q9NQZ2)	0.964 ± 0.037
UNK (UniProt Q9C0B0)	0.998 ± 0.038
UniProt Q9H6R7 and related entries	1.2 ± 0.09
XAB2 (UniProt Q9HCS7)	1.1 ± 0.033
HMG20A (UniProt Q9NP66)	0.922 ± 0.12
NMRAL1 (UniProt Q9HBL8)	1.02 ± 0.033

Same assay, conditions: concentration: 0.5mM

Target	NP40-soluble protein abundance
EGLN1 (UniProt Q9GZT9)	0.958 ± 0.062
UniProt Q9HD20 and related entries	1.03 ± 0.049
UniProt Q9H330 and related entries	0.876 ± 0.06
UPF2 (UniProt Q9HAU5)	1 ± 0.043
KLC2 (UniProt Q9H0B6)	0.934 ± 0.044
UniProt Q9HCE5	0.998 ± 0.04
UniProt Q9NNW7 and related entries	0.989 ± 0.051
PDCL3 (UniProt Q9H2J4)	1.07 ± 0.051
UniProt Q9H7Z7 and related entries	0.943 ± 0.027
PDF (UniProt Q9HBH1)	1.02 ± 0.099
UniProt Q9HDC9-2|Q9HDC9	0.984 ± 0.013
UniProt Q9H2D6-5|Q9H2D6 and related entries	1.02 ± 0.21
RMI1 (UniProt Q9H9A7)	1.06 ± 0.049
UniProt Q9GZT3 and related entries	0.866 ± 0.077
UniProt Q9H871	1.09 ± 0.058
UniProt Q9H3Z4 and related entries	0.939 ± 0.062
HINT3 (UniProt Q9NQE9)	1.04 ± 0.024
NANS (UniProt Q9NR45)	1.01 ± 0.053
CPVL (UniProt Q9H3G5)	0.964 ± 0.037

Target	NP40-soluble protein abundance
PELI2 (UniProt Q9HAT8)	0.989 ± 0.046
UniProt Q9H6Z4 and related entries	0.905 ± 0.058
GOLPH3 (UniProt Q9H4A6)	0.959 ± 0.038
UniProt Q9GZU8	0.902 ± 0.046
UniProt Q9HBE1 and related entries	1.07 ± 0.072
UniProt Q9H0X9 and related entries	1.23 ± 0.032
UniProt Q9H078 and related entries	1.11 ± 0.16
CWC22 (UniProt Q9HCG8)	0.981 ± 0.071
UniProt Q9H1E5	0.912 ± 0.052
ETNK1 (UniProt Q9HBU6)	1.06 ± 0.1
UniProt Q9HC36	1.05 ± 0.049
ATG5 (UniProt Q9H1Y0)	0.986 ± 0.015
UTP3 (UniProt Q9NQZ2)	0.963 ± 0.031
UNK (UniProt Q9C0B0)	1.04 ± 0.021
UniProt Q9H6R7 and related entries	1.15 ± 0.14
XAB2 (UniProt Q9HCS7)	1.1 ± 0.053
HMG20A (UniProt Q9NP66)	0.95 ± 0.12
NMRAL1 (UniProt Q9HBL8)	0.953 ± 0.02

Same assay, conditions: concentration: 1mM

Target	NP40-soluble protein abundance
EGLN1 (UniProt Q9GZT9)	0.959 ± 0.054
UniProt Q9HD20 and related entries	0.9141 ± 0.0074
UniProt Q9H330 and related entries	0.796 ± 0.083
UPF2 (UniProt Q9HAU5)	0.968 ± 0.03
KLC2 (UniProt Q9H0B6)	0.997 ± 0.056
UniProt Q9HCE5	0.889 ± 0.012
UniProt Q9NNW7 and related entries	1 ± 0.06
PDCL3 (UniProt Q9H2J4)	1.08 ± 0.08
UniProt Q9H7Z7 and related entries	0.916 ± 0.011
PDF (UniProt Q9HBH1)	0.988 ± 0.1
UniProt Q9HDC9-2|Q9HDC9	0.898 ± 0.027
UniProt Q9H2D6-5|Q9H2D6 and related entries	1.04 ± 0.17
RMI1 (UniProt Q9H9A7)	1.03 ± 0.055
UniProt Q9GZT3 and related entries	1 ± 0.13
UniProt Q9H871	1.11 ± 0.11
UniProt Q9H3Z4 and related entries	0.906 ± 0.049
HINT3 (UniProt Q9NQE9)	0.983 ± 0.058
NANS (UniProt Q9NR45)	0.93 ± 0.035
CPVL (UniProt Q9H3G5)	0.94 ± 0.017

Target	NP40-soluble protein abundance
PELI2 (UniProt Q9HAT8)	0.946 ± 0.078
UniProt Q9H6Z4 and related entries	0.904 ± 0.052
GOLPH3 (UniProt Q9H4A6)	0.933 ± 0.075
UniProt Q9GZU8	0.9756 ± 0.0087
UniProt Q9HBE1 and related entries	1.18 ± 0.059
UniProt Q9H0X9 and related entries	1.25 ± 0.14
UniProt Q9H078 and related entries	1.03 ± 0.11
CWC22 (UniProt Q9HCG8)	1.01 ± 0.041
UniProt Q9H1E5	0.896 ± 0.053
ETNK1 (UniProt Q9HBU6)	0.976 ± 0.065
UniProt Q9HC36	1.06 ± 0.061
ATG5 (UniProt Q9H1Y0)	0.952 ± 0.043
UTP3 (UniProt Q9NQZ2)	0.987 ± 0.075
UNK (UniProt Q9C0B0)	1.07 ± 0.011
UniProt Q9H6R7 and related entries	1.19 ± 0.081
XAB2 (UniProt Q9HCS7)	1.03 ± 0.068
HMG20A (UniProt Q9NP66)	1.15 ± 0.14
NMRAL1 (UniProt Q9HBL8)	0.902 ± 0.027
